Results are given in words; binding and its absence hold for the method and conditions named. In cells and extracts the contact can be indirect. Some results given as binding are weak or reduced against the parent protein; the word gives no strength. Where a sequence is shown, tags or fusion partners need not be part of it.
Biological target: T1, HA-IRF3 (UniProt Q14653)
T1 sequence: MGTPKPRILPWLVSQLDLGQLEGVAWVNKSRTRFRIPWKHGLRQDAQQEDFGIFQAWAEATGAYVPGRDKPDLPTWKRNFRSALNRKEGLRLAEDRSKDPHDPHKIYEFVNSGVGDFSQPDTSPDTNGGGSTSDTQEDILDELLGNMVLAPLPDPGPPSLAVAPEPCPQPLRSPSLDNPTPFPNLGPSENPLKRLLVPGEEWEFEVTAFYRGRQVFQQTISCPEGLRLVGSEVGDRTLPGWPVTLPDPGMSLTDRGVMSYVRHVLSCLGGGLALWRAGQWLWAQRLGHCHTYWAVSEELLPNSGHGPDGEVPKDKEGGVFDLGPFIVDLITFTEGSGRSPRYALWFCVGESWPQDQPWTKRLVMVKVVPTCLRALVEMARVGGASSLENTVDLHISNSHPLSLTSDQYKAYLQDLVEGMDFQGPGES
Assay: co-IP; HEK-293T cells transfected with Flag-NOG1 and/or HA-IRF3, infected with SeV for 12 h; lysates immunoprecipitated with anti-HA antibody, Western blotting for endogenous CBP

Chains of the proteins cited; added tags and fusions are not shown.
UniProt Q92793: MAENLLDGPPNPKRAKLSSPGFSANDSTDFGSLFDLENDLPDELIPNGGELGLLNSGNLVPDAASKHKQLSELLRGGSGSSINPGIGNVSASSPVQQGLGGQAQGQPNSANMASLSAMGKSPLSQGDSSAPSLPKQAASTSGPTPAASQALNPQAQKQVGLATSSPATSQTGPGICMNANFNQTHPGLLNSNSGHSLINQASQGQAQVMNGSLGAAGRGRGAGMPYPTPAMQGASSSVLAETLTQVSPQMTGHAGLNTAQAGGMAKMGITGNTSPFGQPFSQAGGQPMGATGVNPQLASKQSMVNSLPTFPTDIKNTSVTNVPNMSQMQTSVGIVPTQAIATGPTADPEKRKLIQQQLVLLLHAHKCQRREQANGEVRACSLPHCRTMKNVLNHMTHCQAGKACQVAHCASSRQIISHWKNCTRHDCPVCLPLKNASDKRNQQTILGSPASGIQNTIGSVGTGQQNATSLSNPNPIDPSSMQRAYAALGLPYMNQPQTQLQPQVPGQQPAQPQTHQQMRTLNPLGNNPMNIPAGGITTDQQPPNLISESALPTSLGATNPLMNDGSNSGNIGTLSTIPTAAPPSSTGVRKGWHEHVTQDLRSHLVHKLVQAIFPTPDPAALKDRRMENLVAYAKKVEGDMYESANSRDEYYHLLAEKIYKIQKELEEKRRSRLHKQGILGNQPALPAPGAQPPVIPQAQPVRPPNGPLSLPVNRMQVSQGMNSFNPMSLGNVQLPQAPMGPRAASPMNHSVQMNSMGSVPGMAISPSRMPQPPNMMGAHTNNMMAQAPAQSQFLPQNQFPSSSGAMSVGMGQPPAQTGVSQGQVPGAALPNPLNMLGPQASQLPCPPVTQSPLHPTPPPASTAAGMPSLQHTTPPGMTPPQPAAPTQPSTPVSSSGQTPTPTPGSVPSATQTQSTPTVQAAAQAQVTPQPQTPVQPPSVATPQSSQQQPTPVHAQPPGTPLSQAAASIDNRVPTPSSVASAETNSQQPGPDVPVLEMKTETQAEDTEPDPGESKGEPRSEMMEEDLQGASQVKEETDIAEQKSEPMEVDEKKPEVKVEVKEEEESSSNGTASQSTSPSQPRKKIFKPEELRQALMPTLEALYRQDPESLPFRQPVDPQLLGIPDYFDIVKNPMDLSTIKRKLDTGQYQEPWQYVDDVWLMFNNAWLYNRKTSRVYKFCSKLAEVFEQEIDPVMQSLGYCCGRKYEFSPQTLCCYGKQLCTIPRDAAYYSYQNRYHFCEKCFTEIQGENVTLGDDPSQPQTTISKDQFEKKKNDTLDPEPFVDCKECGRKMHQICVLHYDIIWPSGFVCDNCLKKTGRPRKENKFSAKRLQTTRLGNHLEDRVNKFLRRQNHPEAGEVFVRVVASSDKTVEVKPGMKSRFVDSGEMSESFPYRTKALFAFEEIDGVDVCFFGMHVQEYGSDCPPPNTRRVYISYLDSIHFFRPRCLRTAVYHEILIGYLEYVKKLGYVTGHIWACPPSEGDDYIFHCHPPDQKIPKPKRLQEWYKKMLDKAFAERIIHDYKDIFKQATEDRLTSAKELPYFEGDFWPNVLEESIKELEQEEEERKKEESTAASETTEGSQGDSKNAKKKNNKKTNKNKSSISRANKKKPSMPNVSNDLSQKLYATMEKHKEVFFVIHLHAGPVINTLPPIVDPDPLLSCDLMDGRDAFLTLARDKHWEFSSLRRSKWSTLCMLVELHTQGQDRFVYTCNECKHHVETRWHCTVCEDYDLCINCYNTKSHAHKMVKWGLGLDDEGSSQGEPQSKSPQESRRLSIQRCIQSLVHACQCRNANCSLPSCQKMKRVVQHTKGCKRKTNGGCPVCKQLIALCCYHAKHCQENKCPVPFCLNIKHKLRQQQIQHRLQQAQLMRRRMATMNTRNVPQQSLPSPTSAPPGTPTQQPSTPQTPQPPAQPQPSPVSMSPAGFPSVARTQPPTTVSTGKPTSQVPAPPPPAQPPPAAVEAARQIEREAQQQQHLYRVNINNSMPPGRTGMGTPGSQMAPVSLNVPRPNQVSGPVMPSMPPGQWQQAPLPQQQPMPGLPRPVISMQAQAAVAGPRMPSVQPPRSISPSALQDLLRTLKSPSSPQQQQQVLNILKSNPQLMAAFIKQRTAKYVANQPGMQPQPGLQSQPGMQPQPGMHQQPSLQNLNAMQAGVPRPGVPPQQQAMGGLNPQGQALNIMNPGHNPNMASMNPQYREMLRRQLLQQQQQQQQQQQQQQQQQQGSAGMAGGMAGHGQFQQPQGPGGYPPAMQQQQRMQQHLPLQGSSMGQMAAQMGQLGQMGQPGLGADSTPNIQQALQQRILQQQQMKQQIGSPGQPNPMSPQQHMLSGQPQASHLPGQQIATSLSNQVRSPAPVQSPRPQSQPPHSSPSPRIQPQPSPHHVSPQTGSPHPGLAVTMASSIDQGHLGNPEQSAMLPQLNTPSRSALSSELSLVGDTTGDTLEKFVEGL

binding: binds
Substance: CBP (CREB-binding protein), endogenous (from UniProt Q92793 1-2442)

From publication PMC10353805
